Results are given in words; binding and its absence hold for the method and conditions named. In cells and extracts the contact can be indirect. Some binding calls cover weakened binding; strength is not graded here. Where a sequence is shown, tags or fusion partners need not be part of it.
Target: CD40 from RS11846 B-cell lymphoma cell lysate (human) (UniProt P25942)
Assay: GST pull-down from RS11846 lymphoma cell lysate, western blot with anti-CD40

Protein sequences, listed by entry. Tags and fused reporters are not part of them. Residues count along the entry.
UniProt P25942, residues 21-277: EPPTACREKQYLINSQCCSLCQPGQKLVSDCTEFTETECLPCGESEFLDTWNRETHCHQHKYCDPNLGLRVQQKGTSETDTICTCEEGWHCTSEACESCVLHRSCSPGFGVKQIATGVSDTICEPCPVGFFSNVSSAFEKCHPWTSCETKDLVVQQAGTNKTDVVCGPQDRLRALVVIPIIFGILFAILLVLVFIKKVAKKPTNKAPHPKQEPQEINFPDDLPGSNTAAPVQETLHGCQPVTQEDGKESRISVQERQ

B1: GST-CAP-1 (positions 363-543) (protein, not shown: a dimerising Fc or GST; large carriers; small tags and cut ends)
chain: HDQMLSVHDIRLADMDLRFQVLETASYNGVLIWKIRDYKRRKQEAVMGKTLSLYSQPFYTGYFGYKMCARVYLNGDGMGKGTHLSLFFVIMRGEYDALLPWPFKQKVTLMLMDQGSSRRHLGDAFKPDPNSSSFKKPTGEMNIASGCPVFVAQTVLENGTYIKDDTIFIKVIVDTSDLPDP
binding: binds

Source: US20020009726A1 (LA JOLLA CANCER RESEARCH FOUNDATION, published 2002)
